{"source": "patent US20250152561A1", "about": "(Cartesian Therapeutics, Inc., priority 2014, published 2025)", "test_system": "anti-KLH antibody", "test": "Durable immune tolerance toward KLH, nanocarriers versus free rapamycin, Example 13", "type": "in vivo, C57BL/6 mice", "settings": "days 35 and 42", "note": "At least one compound was matched to its structure with a doubt left."}
{"smiles": "CO[C@H]1C[C@@H]2CC[C@@H](C)[C@@](O)(O2)C(=O)C(=O)N2CCCC[C@H]2C(=O)O[C@H]([C@H](C)C[C@@H]2CC[C@@H](O)[C@H](OC)C2)CC(=O)[C@H](C)/C=C(\\C)[C@@H](O)[C@@H](OC)C(=O)[C@H](C)C[C@H](C)/C=C/C=C/C=C/1C", "note": "[rapamycin]", "values": [{"measurement": "Anti-KLH antibody response", "setting": "daily free rapamycin (50 μg/day, five times per week, Day 0-20) with weekly KLH", "value": "showed a delayed response compared to the PBS control group"}, {"measurement": "Anti-KLH antibody response", "setting": "treatment in the absence of KLH, KLH challenges days 21, 28, 35", "value": "developed similar levels of anti-KLH antibodies as the PBS-treated group"}]}
